Among the data in PubChem BioAssay AID2685 (National Center for Advancing Translational Sciences (NCATS), 2010) are cell number change and AC50 values, retold here.

The list shows a part of the results. Shown are side measurements of this screen, not its main read-out; they come without a call. Most of these compounds were active or inconclusive in the main read-out, so they are no random draw. Words in brackets tell the shape of the fitted curve; partial curves, single points and poor fits give uncertain potencies.

The nature of this experiment: qHTS Assay for Lipid Storage Modulators in Drosophila S3 Cells.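 As to cell number change: cells counted by Cell Tracker Red CMTPX staining in the red channel.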 Particulars: BODIPY lipid droplet fluorescence, 18-24 h; for cell number change: measured here: cell count max response, cells fed with added oleic acid. In a few lines:
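Drosophila S3 cells loaded with oleic acid (400 uM, as added) and compounds at several concentrations; lipid droplets imaged by 488-nm laser-scanning cytometry, 500–530 nm intensity and object ratio to cell channel. Percent activity normalized to 20 uM Triacsin C.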

[1] abbreviates: measured here: lipid fluorescence (Fed channel) AC50, cells fed with added oleic acid.
Where [2] appears, read: measured here: cell number channel AC50, cells fed with added oleic acid.

`CC(C)CSC1=NSC2=NC(=O)/C(=C\c3ccccc3)C(=N)N12`: the cell number change was found to be 7.86%. Moreover, the AC50 under setting [1] is 2.91 µM [falling, partial curve]. For the molecule `CCCCn1c(N)c(N(CCC(C)C)C(=O)c2ccc([N+](=O)[O-])s2)c(=O)[nH]c1=O`, the cell number change is -16.3%. With `CC(C)SC1=NC(C)(C)C=C(/C=C/c2c(Cl)cccc2Cl)N1`, the cell number change was 94.8%. For the same molecule, the AC50 under setting [2] was 0.231 µM [rising, full curve, poor fit]. For the molecule `CCc1noc(C)c1C(=O)Nc1ccc(C)c(S(=O)(=O)N2CCCCCC2)c1`, the cell number change was found to be 40.7%. Besides, under setting [2], the AC50 is 3.26 µM [rising, full curve]. For the same molecule, the AC50 under setting [1] is 0.92 µM [rising, partial curve].

In the case of `S=C(NCc1ccc2c(c1)OCO2)Nc1ccc2nsnc2c1`, under setting [1], the AC50 was 4.11 µM [rising, partial curve, poor fit]. For the molecule `c1ccc(Cn2cc(CN3CCCO3)c(-c3ccc4c(c3)OCO4)n2)cc1`, the cell number change was 33.6%. In addition, under setting [1], the AC50 was 4.61 µM [rising, full curve, poor fit]. Regarding `C=CCN(C(=O)Nc1ccc(OC)cc1)c1nnc(-c2ccncc2)s1`, the cell number change is -1.75%. The same measure, in the same setting: for `COC(=O)c1cccc(NC(=O)c2cc3sccc3n2C)c1` the value was -18.4%. Turning to `Cc1ccc(NC(=O)c2ccc3c(c2)NC(=O)CS3)nc1`, under setting [1], the AC50 was 29.1 µM [rising, single point]. `Cc1ncc(C[n+]2ccc(C)c(C)c2)c(N)n1`: the cell number change is -1.13%. Moreover, under setting [1], the AC50 was 29.1 µM [rising, single point].

As to `CSc1ccc(/C=N/NC(=O)c2cccc(Cl)c2)cc1`, the cell number change amounted to 11.6%. Further, the AC50 under setting [2] is 2.59 µM [rising, partial curve]. Regarding `Cc1ccccc1-c1nc(CS(=O)CC(=O)NCCCN(C)c2ccccc2)c(C)o1` (stereo unspecified), the cell number change was -15.6%.

For `O=[N+]([O-])c1ccc2c(c1)OCCOCCOCCOCCOCCOCCO2`, the cell number change is -10.4%. Also, the half-maximal activity concentration (AC50) under setting [1] is 0.651 µM [falling, full curve, poor fit]. As for `Cc1cc(C(=O)COC(=O)c2ccc(N)c([N+](=O)[O-])c2)c(C)n1Cc1ccc2c(c1)OCO2`, the cell number change came to 14.3%. Further, under setting [1], the AC50 is 0.326 µM [rising, full curve, poor fit]. For `Cc1cccc2cc(C#N)c(SCC(=O)N3CCC(C)CC3)nc12`, the cell number change is -20.6%. The concentration at half-maximal activity (AC50) under setting [1] was 6.51 µM [rising, single point]. In the case of `O=C(NCCCN1CCOCC1)c1cc2ccccc2cc1O`, the cell number change was determined as 52.9%. The concentration at half-maximal activity (AC50) under setting [2] is 25.9 µM [rising, single point]. For the molecule `CCC(CC)NC(=O)Cc1ccccc1[N+](=O)[O-]`, the cell number change is -56.7%. In addition, the AC50 under setting [2] is 11.6 µM [falling, partial curve]. For the same molecule, the half-maximal activity concentration (AC50) under setting [1] is 14.6 µM [falling, partial curve].

For `COc1ccccc1NC(=O)CSc1nn2c(=O)c(C)nnc2s1`, the cell number change is -0.578%. In addition, the AC50 under setting [1] is 18.4 µM [rising, partial curve]. Turning to `Cc1ccc(C)c(-c2csc(-c3cccnc3)n2)c1`, the cell number change is -19.9%. Turning to `Cc1ccc(S(=O)(=O)Nc2ccc(S(=O)(=O)NCC3CCCO3)cc2)cc1` (stereo unspecified), the cell number change came to 13.5%. Moreover, the AC50 under setting [1] was 0.58 µM [falling, single point]. Regarding `Cc1ccc([N+](=O)[O-])c2c1C(N1CCCCC1)C(C)(C)O2` (stereo unspecified), the cell number change is -50.7%. For the same molecule, the AC50 under setting [2] was 5.8 µM [falling, full curve, poor fit]. Besides, the AC50 under setting [1] was 2.31 µM [falling, full curve]. Consider `O=C(NCCN1CCOCC1)C1CCN(c2ncnc3c2sc2cccc(F)c23)CC1`, for which the cell number change came to 18.8%. Under setting [1], the AC50 was 16.4 µM [rising, single point]. As for `CC(=O)Nc1ccc(-c2nnc(SCC(=O)n3c4c(c5ccccc53)CCCC4)n2C)cc1`, the cell number change was determined as 190%. For the same molecule, the AC50 under setting [2] is 6.51 µM [rising, full curve]. Moreover, the AC50 under setting [1] was 6.51 µM [rising, partial curve].

In the case of `O=S(=O)(Cc1ccccc1)N1CCN(Cc2ccc3c(c2)OCO3)CC1`, the cell number change was -20.7%. As for `COc1cccc(NC(=O)c2oc3ccccc3c2NC(C)=O)c1`, the cell number change was -24%. Further, under setting [1], the AC50 is 32.6 µM [falling, partial curve]. For the molecule `COc1ccc(CCNC(=O)c2cc(-c3ccccc3)c(N3CCOCC3)s2)c(OC)c1OC`, the cell number change worked out at 2.02%. The AC50 under setting [1] was 0.13 µM [falling, full curve, poor fit]. Turning to `CN(C)CCNC(=O)c1cc(Br)ccc1Cl`, the cell number change amounted to 134%. On to `N#Cc1cccc(CN2CCCN(Cc3ccc(F)cc3)S2(=O)=O)c1`, for which the cell number change came to 13.5%. For the same molecule, the AC50 under setting [1] is 0.651 µM [rising, full curve, poor fit]. As to `Cc1ccccc1OCCOc1cccc(/C=N/NC(=O)Cc2nnc(N)s2)c1`, the cell number change was -72.1%. Moreover, the concentration at half-maximal activity (AC50) under setting [2] was 29.1 µM [falling, single point]. For the same molecule, under setting [1], the AC50 was 29.1 µM [falling, partial curve, poor fit].

As for `COc1ccc([C@H]2CC(=O)C=C(c3cccc4c3Oc3ccccc3S4)C2)cc1`, the cell number change was -17.1%. Besides, under setting [1], the AC50 is 0.092 µM [falling, single point]. Take `NC(=S)NN=C1C2CC3CC(C2)CC1C3`: the cell number change worked out at 23.7%. For the same molecule, the AC50 under setting [2] is 0.0231 µM [falling, full curve, poor fit]. Besides, under setting [1], the AC50 was 13 µM [falling, single point]. For the molecule `O=C(Cc1ccccc1[N+](=O)[O-])OCN1C(=O)c2ccccc2C1=O`, the cell number change is -19.9%. For `NC(=O)CSc1nc(-c2ccccc2)nc2c1CCCC2`, the cell number change came out at 2.91%. Besides, the AC50 under setting [1] is 0.00651 µM [falling, full curve, poor fit]. Turning to `COc1ccc(NC(=O)c2cc(C)no2)cc1`, the cell number change is -16.2%.

`CC(C)OCCCNC(=O)CN1CCN(Cc2ccc(Cl)cc2)C1=O`: the cell number change amounted to 16.7%. Also, the AC50 under setting [1] was 1.03 µM [falling, full curve].

For `COc1ccc(-c2cc(C(F)(F)F)nc(S(C)(=O)=O)n2)cc1OC`, the cell number change was -55.8%. Also, under setting [2], the AC50 was 29.1 µM [falling, single point].

On to `C/C(=N/N1CCN(c2ccccc2)CC1)c1cccc([N+](=O)[O-])c1`, for which the cell number change was found to be 30.4%. Also, the AC50 under setting [2] was 18.4 µM [rising, single point]. Also, the AC50 under setting [1] is 18.4 µM [rising, single point].

On to `COC(=O)Nc1nc(Sc2ncc(C(F)(F)F)cc2Cl)n[nH]1`, for which the cell number change is 41.4%. Further, the AC50 under setting [2] was 18.4 µM [rising, single point]. For the same molecule, the AC50 under setting [1] was 20.6 µM [falling, single point]. For `O=S(=O)(Nc1ccc(S(=O)(=O)Nc2ncccn2)cc1)c1ccc(Cl)cc1`, the cell number change is -6.35%. `S=C(NCc1ccc2c(c1)OCO2)Nc1ccc(-c2nc3ccccc3[nH]2)cc1`: the cell number change is 2.99%. Further, the concentration at half-maximal activity (AC50) under setting [2] is 2.31 µM [rising, partial curve]. Besides, the half-maximal activity concentration (AC50) under setting [1] is 1.03 µM [rising, full curve]. Regarding `Cc1ccc2nc(-c3ccccn3)cc(C(=O)NC(C)C(C)(C)C)c2c1` (stereo unspecified), the cell number change was -112%. For `CC(=O)NCCCc1nc2ccccc2n1Cc1cc(C)ccc1C`, the cell number change was -16%. In addition, the AC50 under setting [2] was 0.00517 µM [falling, full curve]. The AC50 under setting [1] is 0.00651 µM [falling, full curve]. For the molecule `O=C(COc1ncnc2ccccc12)N1CCN(c2ccccc2)CC1`, the cell number change is 22.2%. Moreover, the AC50 under setting [1] was 29.1 µM [rising, single point]. In the case of `COC(=O)c1cc(C(=O)OC)cc(N2C(=O)CC(N3CCN(c4ccccc4)CC3)C2=O)c1` (stereo unspecified), the cell number change was -13.3%.

Consider `Cc1ccc(C(=O)/C=C/c2ccc3ncccc3c2)cc1`, for which the cell number change was -54%. The AC50 under setting [2] is 32.6 µM [falling, single point]. Consider `Cc1ccc(C)c(NC(=O)CN(C)C(=O)c2oc3c(Cl)cccc3c2C)c1`, for which the cell number change amounted to 14.6%. In addition, the AC50 under setting [1] is 20.6 µM [rising, partial curve].

On to `CCOc1ccc(NC(=O)c2ccc3c(c2)N(Cc2ccc(F)cc2)C(=O)CS3=O)cc1` (stereo unspecified), for which the AC50 was 1.84 µM [rising, partial curve, poor fit] under setting [2] and 2.31 µM [rising, partial curve] under setting [1]. Turning to `COc1ccc(/C=N/NC(=O)c2cccnc2)c2ccccc12`, the cell number change is -16.7%. Also, the AC50 under setting [2] is 7.31 µM [falling, single point]. Turning to `Cc1ccc(S(=O)(=O)N2CCN(C(=O)c3cc(-c4cccs4)nn3-c3ccccc3)CC2)cc1`, the AC50 is 6.51 µM [falling, single point] under setting [2] and 20.6 µM [rising, single point] under setting [1]. Turning to `O=c1[nH]c(=S)n(C2CCCCC2)c(O)c1C=NCCN1CCOCC1`, the cell number change is -51.7%. Besides, the concentration at half-maximal activity (AC50) under setting [2] was 29.1 µM [falling, single point]. Further, under setting [1], the AC50 is 29.1 µM [falling, single point].

Take `Cc1ccc(NC(=O)Cc2ccc3c(c2)CCCC3)cc1C`: the AC50 under setting [2] is 4.11 µM [rising, single point] and the AC50 under setting [1] is 0.651 µM [rising, full curve]. For the molecule `C#CCSc1nccc(-c2nn(-c3ccc(C)cc3)ccc2=O)n1`, the cell number change is -25.9%. As for `CCOc1ccc(C(=O)Nc2nccs2)cc1[N+](=O)[O-]`, the cell number change was determined as 4.65%. Under setting [1], the half-maximal activity concentration (AC50) is 6.51 µM [rising, single point].

Take `Cc1ccc(Cl)cc1N1CCN(S(=O)(=O)c2c(C)[nH]c(=O)[nH]c2=O)CC1`: the cell number change amounted to 35.1%. For the same molecule, under setting [2], the concentration at half-maximal activity (AC50) is 11.6 µM [rising, partial curve]. For the molecule `COc1cccc(CCNC(=O)C2CCC(=O)N(C3CC3)C2)c1OC` (stereo unspecified), the cell number change was determined as 5.63%. Moreover, the concentration at half-maximal activity (AC50) under setting [1] is 0.58 µM [rising, single point]. On to `CCCCC(CCC(=O)O)(C(=O)OCC)c1csc(N)n1` (stereo unspecified), for which the cell number change came to 30.5%. The AC50 under setting [2] was 0.0731 µM [rising, full curve, poor fit]. For `COc1cc(OC)cc(C(=O)N[C@H](C(=O)OCn2nnc3ccccc3c2=O)C(C)C)c1`, the AC50 is 4.61 µM [rising, single point] under setting [2] and 5.17 µM [rising, single point] under setting [1]. Regarding `COc1cccc(N=Nc2c(=O)[nH]n3c(C)cc(C)nc23)c1`, the cell number change worked out at 27.5%. For the same molecule, under setting [1], the AC50 was 16.4 µM [falling, single point]. As for `Cc1ccc(S(=O)(=O)N2CCC(NC(=O)c3cccc(F)c3)CC2)cc1`, the cell number change worked out at 32.7%. Under setting [2], the AC50 was 0.0058 µM [rising, full curve, poor fit]. Take `COc1ccccc1NC(=O)Cc1nnc(SCC(=O)NC2CCCCC2)n1C`: the cell number change was 16.2%. In addition, the AC50 under setting [2] is 0.206 µM [rising, full curve, poor fit].
